Measurements from PubChem BioAssay AID1794845 (National Center for Advancing Translational Sciences (NCATS), 2023).
The whole screen tested about 6,900 compounds, of which fewer than 10 were called active. The call rests on the fitted dose curve; in most records, active means well fitted curve in the direction sought with a large enough effect; inconclusive means small, poorly fitted or top-dose-only effect, or another doubt; inactive means no such curve, though single readings can be large or run the other way. This is one part of the list.

Amino acid sequences for entries named in this document (tags omitted). A change or cut given only in a name is not applied to a line headed by its entry.
UniProt C7C422: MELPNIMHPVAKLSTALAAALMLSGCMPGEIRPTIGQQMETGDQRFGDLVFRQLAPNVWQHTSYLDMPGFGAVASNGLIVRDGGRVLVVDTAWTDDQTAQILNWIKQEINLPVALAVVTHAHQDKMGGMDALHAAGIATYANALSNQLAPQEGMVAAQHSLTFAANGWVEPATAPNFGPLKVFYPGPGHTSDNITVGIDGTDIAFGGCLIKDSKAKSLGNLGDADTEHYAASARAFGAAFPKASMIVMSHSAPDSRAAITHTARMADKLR

target: Metallo-beta-lactamase type 2 (Klebsiella pneumoniae) (UniProt C7C422); assay: qHTS to identify inhibitors of the New Delhi Metallo-beta-lactamase (NDM): primary screen against the NCATS Gemini Collection; conditions: NDM-1 enzyme, meropenem hydrolysis, absorbance 300 nm; at 38.4 µM (top of the series) unless noted; further: % of control where 0% means no effect
Method in brief: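 NDM-1 at 2 nM final in 50 mM HEPES pH 7.0, 1 uM ZnSO4, 0.01% Tween20, preincubated >30 min with compound. Meropenem 50 uM final added; absorbance at 300 nm after 30 min.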

SMILES	activity % (negative = inhibition)
COc1ccc(CN2CCCCC23Cc2ccccc2CN(C(C)=O)C3)cc1 (stereo unspecified)	inactive: 10.2%
Cc1csc(CN(C)C(=O)CC(c2ccccc2)c2ccc3c(c2)OCO3)n1 (stereo unspecified)	inactive: 9.65%
c1ccc(Nc2cc3c(cn2)NCCN(Cc2cccs2)C3)cc1	inactive: 61.5% [at 57.5 µM]
Cc1ccccc1OCc1nc(C2CN(C(=O)NC(C)C)C2)no1	inactive: -10.3%
COc1ccc(-n2c(=O)[nH]c3cccnc32)cc1OC	inactive: 19.8% [at 57.5 µM]
CN(C)C(=O)CNC(=O)c1cccc(S(=O)(=O)NCCn2ccnc2)c1	inactive: 4.12%
CC(C)(C)c1cc(C[C@H]2CNCC[C@H]2CC(=O)N2CCC(Cc3ccccc3)CC2)no1	inactive: -3.5%
CCC1(O)CCC12CCN(C(=O)C1CCCC1)CC2 (stereo unspecified)	inactive: -3.78%
CC(C)NC(=O)c1nc(-c2ccc([S+](C)(=O)[O-])cc2)c2ccccn12	inactive: 7.48%
COc1ccc(-c2cn3c(n2)CO[C@@H](CNC(=O)CCC(=O)O)C3)cc1	inactive: 18.3% [at 57.5 µM]
CCOC(=O)CCNC(=O)N1CCCC(c2nc(-c3cnccn3)no2)CCNC(=O)CC1 (stereo unspecified)	inactive: 45.2%
C#CCNC(=O)[C@H]1O[C@H](CCN(C)CC#C)CC[C@@H]1O	inactive: 0.353% [at 77.1 µM]
O=C(c1ccc(Cl)cc1)N1CCC2(CC1)CC(c1ccccc1)=NO2	inactive: 0.956%
O=C1NC2(CN(C(=O)c3ccccc3)C2)Oc2ccccc21	inactive: -0.352% [at 57.5 µM]
C[S+](=O)([O-])N1CC2(CCN(Cc3c[nH]c4ccccc34)CC2)Cc2ccccc21	inactive: -0.677%
Cn1cnnc1CC1CCN(C(=O)CN2CC(c3ccccc3)CC2=O)CC1 (stereo unspecified)	inactive: 18.9%
O=C1NC2(CCCN(C(=O)c3ccc(F)cc3)C2)Oc2ccccc21 (stereo unspecified)	inactive: 6.71% [at 57.5 µM]
O=C(Nc1ccccc1F)N1CC(Oc2ccc(-c3noc(-c4ccccc4)n3)cc2)C1	inactive: -0.126%
CCC1Oc2ccc(NC(=O)CC(C)(C)C)cc2CN(Cc2ccccc2F)C1=O (stereo unspecified)	inactive: 1.15%
COc1ccc(OC)c(CNC(=O)c2cccc3c2CCN3C(=O)c2ccc(F)cc2)c1	inactive: 8.45%
O=C(NCCc1ccccc1)Nc1cccn2ncnc12	inactive: 6.21%

SMILES	activity % (negative = inhibition)
O=C(C1CCCN1C(=O)c1ccccc1)N1CCC(c2ccccc2)CC1 (stereo unspecified)	inactive: -4.17%
COc1ccc([C@H]2C[C@@H](O)[C@@H](O)[C@@H]2NS(=O)(=O)c2ccc(Cl)cc2)cc1	inactive: 6.57% [at 57.5 µM]
O=C(C1CCC1)N1CCC(Cc2nncn2Cc2ccccc2)CC1	inactive: 11.9%
COc1cccc(N2CCN(C(=O)c3noc(-c4ccc(C)cc4)n3)CC2)c1	inactive: 4.04%
COCCn1c(=O)c2c(n1Cc1ccccc1)CN(C(=O)Cc1cccc(F)c1)CC2	inactive: 9.62% [at 57.5 µM]
Cc1nc(N2CCC(C(=O)NCCC3=CCCCC3)CC2)cc(C(F)(F)F)n1	inactive: 21.1%
COc1cc(CC2(CCC(=O)N3CCC(Oc4cccc(F)c4)CC3)CCC(=O)N2)ccc1F (stereo unspecified)	inactive: 9.28%
Cc1ccccc1CC(=O)Nc1cccc(-c2nnc3n2CCCC3)c1	inactive: 0.602%
CC(=O)N1CCC(N2CCOC[C@H]2c2ncc(C(C)(C)C)[nH]2)CC1	inactive: -9.18% [at 57.5 µM]
O=C1N(Cc2cccc(F)c2F)CCCC1(O)CN1CCNCC1 (stereo unspecified)	inactive: 10.3%
COCCN1C(=O)c2ccccc2C(C(=O)Nc2cc(C)ccn2)C12CCCC2 (stereo unspecified)	inactive: 3.52%
Cc1nc(-c2c3n(c(=O)n(CC#N)c2=O)CCCCC3)no1	inactive: 0.369%
O=c1n(-c2ccc(C(F)(F)F)cc2)nc2n1CCN([S+](=O)([O-])c1ccccc1)C2	inactive: 8.02%
COC(=O)c1ccc(CN2C[C@@H]3C(C)(C)COc4ccc(OC)cc4[C@]3(CO)C2)cc1	inactive: 38.3%
O=C(NC[C@H]1O[C@@H](Cc2nc(-c3ccc(OC(F)(F)F)cc3)no2)[C@H](O)[C@@H]1O)C1CC1	inactive: 7.67%
COc1ccc(NC(=O)N[C@H]2C[C@@H](c3nc(-c4ccncc4)no3)N(C)C2)cc1	inactive: 2.3% [at 57.5 µM]
Cc1c(NC(=O)CCc2cc3n(n2)CCNC3)cccc1-c1nncn1C	inactive: 57.5%
O=[S+]1([O-])N(c2ccccc2)C[C@@H](O)[C@]12CCN(Cc1ccc(C(F)(F)F)nc1)C2	inactive: -3.16%
O=C(c1ccc(C(F)(F)F)cc1)N1CCCC(C(=O)N2CCC(N3Cc4cccn4C3=O)CC2)C1 (stereo unspecified)	inactive: 45.8%
COc1ccccc1C(=O)N1Cc2c(C(=O)NC3CC3)nn(C)c2C1	inactive: 0.444%

Two compounds drawn at random from the list so far:
SMILES	activity % (negative = inhibition)
O=C(C1CCC1)N1CCC(Cc2nncn2Cc2ccccc2)CC1	inactive: 11.9%
O=C(c1ccc(Cl)cc1)N1CCC2(CC1)CC(c1ccccc1)=NO2	inactive: 0.956%
